Test results from publication PMC12167954.

Biological target: T1, prothymosin α (ProTα) (UniProt P06454)
T1 sequence: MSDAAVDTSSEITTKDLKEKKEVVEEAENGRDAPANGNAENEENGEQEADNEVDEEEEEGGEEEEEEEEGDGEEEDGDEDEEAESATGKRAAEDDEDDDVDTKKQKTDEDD
Assay: associative phase separation (complex coacervation; brightfield microscopy and coexistence measurements of dense and dilute phases); ProTα mixed with a polycation at charge balance in TEK buffer; images at 90 mM KCl (ionic strength 98 mM); phase diagrams as a function of salt concentration; both purified

Q: For protamine, which binding is on record?
A: binds

Results are given in words; binding and its absence hold for the method and conditions named. Binding calls can cover weak binding; strength is not graded here.
